Measurements taken from the supplement of paper PMC12282887.
Values are raw readings; no control value is given beside them.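 Maximum concentrations were near the MIC for antimicrobials, 500 µM for most other compounds, and as high as 1 mM for known inducer-like compounds. Deletion strains began with a tenfold smaller inoculum, and wells with growth under 10% of the overall median counted as non-growing.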

Test system: Escherichia coli BW25113
Assay: growth (OD600 area under curve, 8 h) (OD600 x h); higher = more growth
Method: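 E. coli BW25113 reporter strains (wild type, ΔmarA, ΔsoxS, Δrob, each carrying one of 8 lux reporter plasmids) were grown in 40 µl LB in 384-well plates at 37°C, 800 rpm, with each compound at 4 two-fold concentrations, in biological duplicates. Growth is the baseline-corrected OD600 area under the curve over 8 h (0-8 h WT, 1-9 h deletion strains).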

CNC[C@H](O)c1ccc(O)c(O)c1 [Adrenalin]
growth
Settings | reporter plasmid: EVC | reporter plasmid: acrABp | reporter plasmid: marRABp | reporter plasmid: micFp | reporter plasmid: ompFp | reporter plasmid: robp | reporter plasmid: soxSp | reporter plasmid: tolCp
13.7 µg/ml, genetic background: wild type | 2.78 | 2.91 | 3.15 | 2.73 | 2.68 | 3.11 | 2.74 | 2.79
13.7 µg/ml, genetic background: ΔmarA | 2.81 | 3.93 | 3.57 | 3.05 | 3.26 | 3.64 | 2.51 | 2.7
13.7 µg/ml, genetic background: Δrob | 2.56 | 2.8 | 3.05 | 2.461 | 2.36 | 2.49 | 2.17 | 2.55
13.7 µg/ml, genetic background: ΔsoxS | 2.67 | 2.78 | 2.97 | 2.44 | 3 | 3.2 | 2.83 | 2.551
27.5 µg/ml, genetic background: wild type | 2.65 | 2.76 | 2.79 | 2.55 | 2.45 | 2.69 | 2.53 | 2.69
27.5 µg/ml, genetic background: ΔmarA | 2.56 | 3.46 | 3.02 | 2.87 | 2.93 | 3.26 | 2.33 | 2.44
27.5 µg/ml, genetic background: Δrob | 2.78 | 2.68 | 2.58 | 2.32 | 2.05 | 2.14 | 1.97 | 2.56
27.5 µg/ml, genetic background: ΔsoxS | 2.7 | 2.73 | 2.89 | 2.2 | 2.73 | 2.75 | 2.6 | 2.56
54.9 µg/ml, genetic background: wild type | 2.96 | 3.182 | 3.26 | 2.55 | 2.98 | 2.95 | 2.46 | 2.66
54.9 µg/ml, genetic background: ΔmarA | 3.08 | 3.96 | 3.51 | 3.04 | 3.34 | 4.23 | 2.7 | 2.76
54.9 µg/ml, genetic background: Δrob | 2.42 | 2.77 | 3.2 | 2.42 | 2.23 | 2.56 | 1.97 | 2.36
54.9 µg/ml, genetic background: ΔsoxS | 2.68 | 2.9 | 3.02 | 2.38 | 3.03 | 3.43 | 3.06 | 2.68
109.8 µg/ml, genetic background: wild type | 2.54 | 2.8 | 2.63 | 2.03 | 2.041 | 2.64 | 2.28 | 2.42
109.8 µg/ml, genetic background: ΔmarA | 2.24 | 3.07 | 2.47 | 2.25 | 2.11 | 3.23 | 1.78 | 1.94
109.8 µg/ml, genetic background: Δrob | 1.99 | 2.01 | 2.32 | 1.63 | 1.38 | 1.53 | 1.3 | 2.08
109.8 µg/ml, genetic background: ΔsoxS | 1.99 | 1.68 | 1.85 | 1.12 | 1.18 | 1.67 | 1.64 | 1.79

CNC(C)C1CCC(N)C(OC2C(N)CC(N)C(OC3OCC(C)(O)C(NC)C3O)C2O)O1 (stereo unspecified) [Gentamicin]
growth
Settings | reporter plasmid: EVC | reporter plasmid: acrABp | reporter plasmid: marRABp | reporter plasmid: micFp | reporter plasmid: ompFp | reporter plasmid: robp | reporter plasmid: soxSp | reporter plasmid: tolCp
0.13 µg/ml, genetic background: wild type | 3.02 | 3.39 | 3.442 | 3.04 | 3.13 | 3.32 | 3 | 3.08
0.13 µg/ml, genetic background: ΔmarA | 3.4 | 4.29 | 3.83 | 3.49 | 3.59 | 4.07 | 3.25 | 3.22
0.13 µg/ml, genetic background: Δrob | 3.12 | 2.92 | 3.43 | 3.1 | 2.81 | 2.76 | 3.02 | 3.2
0.13 µg/ml, genetic background: ΔsoxS | 3.28 | 3.34 | 3.29 | 2.9 | 3.22 | 3.44 | 3.26 | 3.15
0.26 µg/ml, genetic background: wild type | 2.723 | 3.1 | 3.19 | 2.44 | 2.67 | 2.99 | 2.45 | 2.96
0.26 µg/ml, genetic background: ΔmarA | 2.97 | 4.07 | 3.57 | 3.09 | 3.08 | 3.79 | 2.8 | 2.93
0.26 µg/ml, genetic background: Δrob | 2.7 | 2.65 | 3.05 | 2.85 | 2.44 | 2.57 | 2.78 | 2.96
0.26 µg/ml, genetic background: ΔsoxS | 2.96 | 3.08 | 2.92 | 2.53 | 2.99 | 3.07 | 3 | 2.97
0.52 µg/ml, genetic background: wild type | 1.64 | 1.55 | 2.35 | 0.859 | 0.188 | 1.4 | 1.67 | 2.58
0.52 µg/ml, genetic background: ΔmarA | 1.71 | 2.65 | 2.54 | 2.44 | 2.04 | 2.46 | 1.51 | 2.17
0.52 µg/ml, genetic background: Δrob | 2.02 | 1.44 | 1.74 | 1.81 | 0.592 | 0.873 | 1.49 | 2.14
0.52 µg/ml, genetic background: ΔsoxS | 2.42 | 1.9 | 1.15 | 1.66 | 1.34 | 2.73 | 2.12 | 1.54
1 µg/ml, genetic background: wild type | -0.298 | 0.0799 | 0.148 | 0.0634 | 0.075 | 0.113 | 0.1216 | 0.177
1 µg/ml, genetic background: ΔmarA | -0.0151 | 0.0108 | -0.0236 | -0.0273 | -0.0567 | -0.00984 | -0.0191 | -0.0744
1 µg/ml, genetic background: Δrob | -0.0875 | -0.037 | -0.024 | -0.0935 | -0.0954 | -0.00174 | 0.0165 | -0.00111
1 µg/ml, genetic background: ΔsoxS | 0.0227 | -0.0541 | 0.0245 | 0.00125 | 0.0342 | 0.0147 | 0.044 | 0.0123
